Reference: the supplement of paper PMC12872613
Where a name gives a salt, the structure may show the parent alone. This is one part of the list. Cut-off read from the data, not from the text of the source: active = 0.7 or more and inactive = the rest. Many values rest on one well or one pass, so single values are uncertain.

These compounds were tested on MiaPaCa-2 CLSA-25 (assay: cell death relative to DMSO vehicle (fraction); higher = more cytotoxic). Conditions: 5 µM; treatment time 48 h; medium cystine 25 µM.

SMILES	cell death
Cn1c(=O)c2nc[nH]c2n(C)c1=O [Theophylline]	inactive: 0.0211
CC[C@H](C)C(=O)O[C@H]1CCC=C2C=C[C@H](C)[C@H](CC[C@@H]3C[C@@H](O)CC(=O)O3)[C@H]21 [Mevastatin]	active: 0.72
CCOc1ccc(Cc2cc([C@@H]3O[C@H](SC)[C@@H](O)[C@H](O)[C@H]3O)ccc2Cl)cc1 [Sotagliflozin]	inactive: 0.202
C[C@]12C[C@H](O)[C@H]3[C@@H](CCC4=CC(=O)CC[C@@]43C)[C@@H]1CC[C@@H]2C(=O)CO [Corticosterone]	inactive: 0.0784
COc1cc(N2CCN(C)CC2)ccc1Nc1ncc2c(n1)N(C)c1ccccc1C(=O)N2	inactive: 0.128
CC[C@H](C)C(=O)O[C@H]1C[C@@H](C)C=C2C=C[C@H](C)[C@H](CC[C@@H]3C[C@@H](O)CC(=O)O3)[C@H]21 [Lovastatin]	inactive: 0.607
OC(Cn1cncn1)(Cn1cncn1)c1ccc(F)cc1F [Fluconazole]	inactive: 0.0441
CC(C)(Oc1ccc(C2CC2(Cl)Cl)cc1)C(=O)O (centres undefined) [Ciprofibrate]	inactive: -0.0233
Cc1cc(-c2nc(-c3ccc(OC(F)(F)F)cc3)no2)nn1Cc1ccnc(N2CCN(C3CC3)CC2)c1	inactive: -0.00321
O=C1c2c(O)cc(O)cc2OC(c2ccc(O)c(O)c2)C1O (centres undefined) [Taxifolin]	inactive: 0.15
CCOc1cc([C@@H](CS(C)(=O)=O)N2C(=O)c3cccc(NC(C)=O)c3C2=O)ccc1OC [Apremilast]	inactive: 0.217
Cc1ccc(CN(CC(O)COc2cccc3[nH]ccc23)C(C)(C)C)cc1 (centres undefined)	inactive: 0.148
COc1cc([C@H]2OC[C@H]3[C@@H]2CO[C@@H]3c2ccc(O[C@@H]3O[C@H](CO)[C@@H](O)[C@H](O)[C@H]3O)c(OC)c2)ccc1O[C@@H]1O[C@H](CO)[C@@H](O)[C@H](O)[C@H]1O [Pinoresinol diglucoside]	inactive: 0.112
CCC[C@H](NC(=O)[C@@H]1[C@H]2CCC[C@H]2CN1C(=O)[C@@H](NC(=O)[C@@H](NC(=O)c1cnccn1)C1CCCCC1)C(C)(C)C)C(=O)C(=O)NC1CC1 [Telaprevir]	inactive: 0.593
CC(=O)OCC(=O)[C@@]1(O)CC[C@H]2[C@@H]3CCC4=CC(=O)C=C[C@]4(C)[C@H]3[C@@H](O)C[C@@]21C [Prednisolone-21-acetate]	inactive: 0.0283
Cn1cc(C[C@@H](N)C(=O)O)c2ccccc21 [Indoximod]	inactive: 0.213
Nc1nc2[nH]cc(CCc3ccc(C(=O)O)cc3)c2c(=O)[nH]1 [Pemetrexed acid]	active: 0.826
O=C(C=Cc1ccccc1)NC(NC(=S)Nc1ccc(Cl)cc1)C(Cl)(Cl)Cl (centres undefined)	inactive: 0.36
O=C(O)[C@@H]1CCCCN1 [L-Pipecolic acid]	inactive: 0.0776
O=C(Nc1ncc(SCCN2CCCC2)s1)[C@]1(c2ccc(S(=O)(=O)C3CC3)cc2)C[C@H]1C1CCCCC1	inactive: 0.0581

Reprinted at random: two records from the list.
SMILES	cell death
O=C(O)[C@@H]1CCCCN1 [L-Pipecolic acid]	inactive: 0.0776
C[C@]12C[C@H](O)[C@H]3[C@@H](CCC4=CC(=O)CC[C@@]43C)[C@@H]1CC[C@@H]2C(=O)CO [Corticosterone]	inactive: 0.0784

(list continues)

SMILES	cell death
CCc1ccc(CCOc2ccc(CC3SC(=O)NC3=O)cc2)nc1 (centres undefined) [Pioglitazone]	inactive: 0.205
CCOc1ccc(Cc2nccc3cc(OCC)c(OCC)cc23)cc1OCC [Ethaverine hydrochloride]	inactive: 0.644
COC(=O)[C@H](c1ccccc1Cl)N1CCc2sccc2C1 (racemic) [(±) Clopidogrel hydrogen sulfate]	inactive: -0.0131
CC[C@H](C)C(=O)O[C@H]1C[C@H](O)C=C2C=C[C@H](C)[C@H](CC[C@@H](O)C[C@@H](O)CC(=O)O)[C@H]21 [Pravastatin sodium]	inactive: 0.281
C[C@H](CCC(=O)O)[C@H]1CC[C@H]2[C@@H]3[C@H](O)C[C@@H]4C[C@H](O)CC[C@]4(C)[C@H]3C[C@H](O)[C@]12C [Cholic Acid]	inactive: 0.0201
COc1ccc(NC(=O)c2ccc(C(=N)N(C)C)cc2)c(C(=O)Nc2ccc(Cl)cn2)c1 [Betrixaban]	inactive: 0.208
CNC(=O)Nc1cc(Oc2cncc(C)c2)c(-c2ccc(OCC(C)(C)O)nc2)cn1	inactive: 0.0966
CC(C)(Oc1ccc(CCNC(=O)c2ccc(Cl)cc2)cc1)C(=O)O [Bezafibrate]	inactive: 0.0163
Cc1cc(O)c2c(c1)C(=O)c1cc(O)cc(O)c1C2=O [Emodin]	inactive: 0.108
COc1ncnc(NS(=O)(=O)c2ccc(N)cc2)c1OC [Sulfadoxine]	inactive: 0.000251
c1ccc(-c2[nH]ncc2-c2ccnc3ccccc23)nc1	inactive: 0.213
Cn1nnc(-c2ccc(-c3ccc(N4C[C@H](CO)OC4=O)cc3F)cn2)n1 [Torezolid]	inactive: 0.0276
Oc1cc(Cl)ccc1Oc1ccc(Cl)cc1Cl [Triclosan]	active: 0.801
O=C(O)/C=C/c1ccc(Cn2ccnc2)cc1 [Ozagrel hydrochloride]	inactive: 0.227
COCCOC(=O)C1=C(C)NC(C)=C(C(=O)OC(C)C)C1c1cccc([N+](=O)[O-])c1 (centres undefined) [Nimodipine]	inactive: 0.0286
Cc1nc(C(=O)NCC(=O)O)c(O)c2ccc(Oc3ccccc3)cc12 [Roxadustat]	inactive: 0.189
C#CCN(C)CCCOc1ccc(Cl)cc1Cl [Clorgyline hydrochloride]	inactive: 0.124
NNC(=O)c1ccccn1 [2-Picolinyl hydrazide]	inactive: -0.0369
CC(C)(C(=O)c1cccnc1)c1cccnc1 [Metyrapone]	inactive: 0.147
